{"source": "PubChem BioAssay AID624297", "about": "(National Center for Advancing Translational Sciences (NCATS), 2012)", "note": "The campaign covered roughly 340,000 compounds. About 6,200 (1.8%) were called active. Inconclusive means that the source gave no clear call. Such entries were picked first, then a sample of the others. The call rests on the fitted dose curve; in most records, active means well fitted activation curve with a large enough effect; inconclusive means small, poorly fitted or top-dose-only effect; inactive means no such curve, though single readings can be large or run the other way. Potencies beside an inconclusive call are fits to weak or partial responses and may not hold up. Potency means the concentration at half of the fitted maximal effect.", "data": [{"assay": "A quantitative high throughput screen for small molecules that induce DNA re-replication in SW480 colon adenocarcinoma cells; further: nearly all actives have a fitted effect of over 55% in size; on re-replication activation: % of control where 0% means no effect.", "details": "Hoechst DNA content imaging, 48 h; re-replication activation: at 46.1 µM (top of the series) unless noted", "procedure,_shortened": "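First, 250 cells per well were seeded. Next, compound or vehicle (23 nL) was pinned in, plates sat 48 hr at 37 C. Finally Hoechst was added for 40 min before fluorescence scanning.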", "values": [{"molecule": "CCOCCCNC(=O)C1CCN(Cc2cccc(OCc3ccccc3)c2)CC1", "Potency": "inconclusive: 0.731 µM [activator, full curve, poor fit]"}, {"molecule": "O=C(/C=C\\c1ccccc1)Oc1cccc2cccnc12", "Potency": "inconclusive: 29.1 µM [activator, single point]"}, {"molecule": "CC(=O)N(C)c1ccc(OCC(O)Cn2c3ccc(Cl)cc3c3cc(Cl)ccc32)cc1", "note": "(configuration not stated)", "Potency": "inconclusive: 23.1 µM [activator, single point]"}, {"molecule": "COc1ccc(S(=O)(=O)N(C)CC(=O)Nc2ccc(C(N)=O)cc2)cc1OC", "re-replication activation": "inactive: 5.46%"}, {"molecule": "COc1cccc(Cn2nnc(C(=O)NCc3ccc4c(c3)OCO4)c2N)c1", "Potency": "inconclusive: 29.1 µM [activator, single point]"}, {"molecule": "O=C(C1=NN[C@@H]2C(=O)N(c3ccccc3C(F)(F)F)C(=O)[C@H]12)c1ccc2ccccc2n1", "Potency": "inconclusive: 29.1 µM [activator, single point]"}, {"molecule": "Cc1ccc(-c2cccc(C(=O)NCc3ccccc3)n2)c2ccccc12", "Potency": "active: 16.4 µM"}, {"molecule": "Cc1cc(NC(=O)/C=C/c2cccc(F)c2)n(-c2nc3ccccc3[nH]2)n1", "Potency": "inconclusive: 16.4 µM [activator, single point]"}, {"molecule": "COC(=O)c1ccc(CCc2cc(O)c(Br)cc2O)cc1", "Potency": "inconclusive: 29.1 µM [activator, single point]"}, {"molecule": "O=C(Nc1ccc(S(=O)(=O)N2CCCC2)cc1)c1cccc(OC(F)F)c1", "Potency": "inconclusive: 32.6 µM [activator, partial curve, poor fit]"}, {"molecule": "COCCN(CC(=O)Nc1cccc(C)c1C)C(=O)c1cc(-c2cccs2)nn1-c1ccccc1", "re-replication activation": "inactive: -10.6%"}, {"molecule": "COc1ccccc1Nc1nnc(SCC2CCCCO2)s1", "note": "(configuration not stated)", "Potency": "inconclusive: 29.1 µM [activator, single point]"}, {"molecule": "CCOC(=O)C1=C(C)N=c2s/c(=C/c3cccc([N+](=O)[O-])c3O)c(=O)n2C1c1ccc(OC)cc1OC", "note": "(configuration not stated)", "Potency": "inconclusive: 18.4 µM [activator, single point]"}, {"molecule": "CCCn1c(SC(C(=O)Nc2cccc(OC)c2)c2ccccc2)nc2ccccc2c1=O", "note": "(configuration not stated)", "Potency": "inconclusive: 16.4 µM [activator, partial curve, poor fit]"}, {"molecule": "CC(C)(C)n1nnnc1C(c1ccc(C(F)(F)F)cc1)N(Cc1ccc(F)cc1)Cc1ccco1", "note": "(configuration not stated)", "Potency": "inconclusive: 29.1 µM [activator, partial curve, poor fit]"}, {"molecule": "COc1ccc(C(=O)NCC(C)(C)SCc2c(C)cc(C)cc2C)cc1", "re-replication activation": "inactive: -6.94%"}, {"molecule": "Cc1ccc(OCCOC(=O)c2cc(S(=O)(=O)N3CCCCC3)ccc2N2CCOCC2)cc1", "Potency": "inconclusive: 0.0517 µM [activator, full curve, poor fit]"}]}]}
